This is one part of the list.
Experiments:
Experiment in all cases: glycan array binding signal (z-score within array); higher = stronger binding
Details in all cases: glycan notation: IUPAC condensed, linker removed
[1] = target: Neu5Ac(a2-3)Gal(b1-3)GlcNAc
How it was run: (§1)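 The binding signal is a Z-score computed within each array. Data were drawn from 3228 arrays in the Consortium for Functional Glycomics database, restricted to those with a known protein sequence. Scores were averaged over arrays of the same protein sequence at different concentrations or buffers, and over linkers, and negative values can be taken as non-binding.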

[2] = target: Neu5Ac(a2-3)Gal(b1-3)GlcNAc(b1-2)Man
How it was run: as §1

[3] = target: Neu5Ac(a2-3)Gal(b1-3)GlcNAc(b1-2)Man(a1-3)[GlcNAc(b1-4)][Neu5Ac(a2-3)Gal(b1-3)GlcNAc(b1-2)Man(a1-6)]Man(b1-4)GlcNAc(b1-4)GlcNAc
How it was run: as §1

[4] = target: Neu5Ac(a2-3)Gal(b1-3)GlcNAc(b1-2)Man(a1-3)[Neu5Ac(a2-3)Gal(b1-3)GlcNAc(b1-2)Man(a1-6)]Man(b1-4)GlcNAc(b1-4)GlcNAc
How it was run: as §1

[5] = target: Neu5Ac(a2-3)Gal(b1-3)GlcNAc(b1-2)[Neu5Ac(a2-3)Gal(b1-3)GlcNAc(b1-4)]Man(a1-6)[Neu5Ac(a2-3)Gal(b1-3)GlcNAc(b1-2)Man(a1-3)]Man(b1-4)GlcNAc(b1-4)GlcNAc
How it was run: as §1

[6] = target: Neu5Ac(a2-3)Gal(b1-3)GlcNAc(b1-3)Gal(b1-3)GlcNAc
How it was run: as §1

[7] = target: Neu5Ac(a2-3)Gal(b1-3)GlcNAc(b1-3)Gal(b1-4)GlcNAc
How it was run: as §1

[8] = target: Neu5Ac(a2-3)Gal(b1-3)GlcNAc(b1-3)GalNAc
How it was run: as §1

[9] = target: Neu5Ac(a2-3)Gal(b1-3)GlcNAc(b1-6)GalNAc
How it was run: as §1

[10] = target: Neu5Ac(a2-3)Gal(b1-3)GlcNAc6S
How it was run: as §1

[11] = target: Neu5Ac(a2-3)Gal(b1-3)[Fuc(a1-4)]GlcNAc
How it was run: as §1

[12] = target: Neu5Ac(a2-3)Gal(b1-3)[Fuc(a1-4)]GlcNAc(b1-3)Gal(b1-3)[Fuc(a1-4)]GlcNAc
How it was run: as §1

[13] = target: Neu5Ac(a2-3)Gal(b1-3)[Fuc(a1-4)]GlcNAc(b1-3)Gal(b1-4)[Fuc(a1-3)]GlcNAc
How it was run: as §1

[14] = target: Neu5Ac(a2-3)Gal(b1-3)[GlcNAc(b1-6)]GalNAc
How it was run: as §1

[15] = target: Neu5Ac(a2-3)Gal(b1-3)[Neu5Ac(a2-6)]GalNAc
How it was run: as §1

[16] = target: Neu5Ac(a2-3)Gal(b1-3)[Neu5Ac(a2-6)]GlcNAc(b1-3)[Fuc(a1-3)[Gal(b1-4)]GlcNAc(b1-6)]Gal(b1-4)Glc
How it was run: as §1

[17] = target: Neu5Ac(a2-3)Gal(b1-3)]Neu5Ac(a2-3)Gal(b1-4)]GlcNAc
How it was run: as §1

Neu5Ac(a2-3)Gal(b1-4)Glc = target: Neu5Ac(a2-3)Gal(b1-4)Glc
How it was run: as §1

[18] = target: Neu5Ac(a2-3)Gal(b1-4)GlcNAc
How it was run: as §1

[19] = target: Neu5Ac(a2-3)Gal(b1-4)GlcNAc(b1-2)Man
How it was run: as §1

[20] = target: Neu5Ac(a2-3)Gal(b1-4)GlcNAc(b1-2)Man(a1-3)[GlcNAc(b1-4)][Neu5Ac(a2-3)Gal(b1-4)GlcNAc(b1-2)Man(a1-6)]Man(b1-4)GlcNAc(b1-4)GlcNAc
How it was run: as §1

[21] = target: Neu5Ac(a2-3)Gal(b1-4)GlcNAc(b1-2)Man(a1-3)[Neu5Ac(a2-3)Gal(b1-4)GlcNAc(b1-2)Man(a1-6)]Man(b1-4)GlcNAc(b1-4)GlcNAc
How it was run: as §1

[22] = target: Neu5Ac(a2-3)Gal(b1-4)GlcNAc(b1-2)Man(a1-3)[Neu5Ac(a2-3)Gal(b1-4)GlcNAc(b1-2)Man(a1-6)]Man(b1-4)GlcNAc(b1-4)[Fuc(a1-6)]GlcNAc
How it was run: as §1

[23] = target: Neu5Ac(a2-3)Gal(b1-4)GlcNAc(b1-2)Man(a1-3)[Neu5Ac(a2-6)Gal(b1-4)GlcNAc(b1-2)Man(a1-6)]Man(b1-4)GlcNAc(b1-4)GlcNAc
How it was run: as §1

[24] = target: Neu5Ac(a2-3)Gal(b1-4)GlcNAc(b1-2)[Neu5Ac(a2-3)Gal(b1-4)GlcNAc(b1-4)]Man(a1-3)[GlcNAc(b1-4)][Neu5Ac(a2-3)Gal(b1-4)GlcNAc(b1-2)[Neu5Ac(a2-3)Gal(b1-4)GlcNAc(b1-6)]Man(a1-6)]Man(b1-4)GlcNAc(b1-4)GlcNAc
How it was run: as §1

[25] = target: Neu5Ac(a2-3)Gal(b1-4)GlcNAc(b1-2)[Neu5Ac(a2-3)Gal(b1-4)GlcNAc(b1-4)]Man(a1-3)[GlcNAc(b1-4)][Neu5Ac(a2-3)Gal(b1-4)GlcNAc(b1-4)Man(a1-6)]Man(b1-4)GlcNAc(b1-4)GlcNAc
How it was run: as §1

[26] = target: Neu5Ac(a2-3)Gal(b1-4)GlcNAc(b1-2)[Neu5Ac(a2-3)Gal(b1-4)GlcNAc(b1-6)]Man(a1-6)[Neu5Ac(a2-3)Gal(b1-4)GlcNAc(b1-2)Man(a1-3)][GlcNAc(b1-4)]Man(b1-4)GlcNAc(b1-4)GlcNAc
How it was run: as §1

[27] = target: Neu5Ac(a2-3)Gal(b1-4)GlcNAc(b1-3)Gal
How it was run: as §1

[28] = target: Neu5Ac(a2-3)Gal(b1-4)GlcNAc(b1-3)Gal(b1-3)GlcNAc
How it was run: as §1

[29] = target: Neu5Ac(a2-3)Gal(b1-4)GlcNAc(b1-3)Gal(b1-4)GlcNAc
How it was run: as §1

[30] = target: Neu5Ac(a2-3)Gal(b1-4)GlcNAc(b1-3)Gal(b1-4)GlcNAc(b1-2)Man(a1-3)[Neu5Ac(a2-3)Gal(b1-4)GlcNAc(b1-3)Gal(b1-4)GlcNAc(b1-2)Man(a1-6)]Man(b1-4)GlcNAc(b1-4)GlcNAc
How it was run: as §1

[31] = target: Neu5Ac(a2-3)Gal(b1-4)GlcNAc(b1-3)Gal(b1-4)GlcNAc(b1-3)Gal(b1-4)GlcNAc
How it was run: as §1

[32] = target: Neu5Ac(a2-3)Gal(b1-4)GlcNAc(b1-3)Gal(b1-4)GlcNAc(b1-3)Gal(b1-4)GlcNAc(b1-2)Man(a1-3)[Neu5Ac(a2-3)Gal(b1-4)GlcNAc(b1-3)Gal(b1-4)GlcNAc(b1-3)Gal(b1-4)GlcNAc(b1-2)Man(a1-6)]GalNAc
How it was run: as §1

[33] = target: Neu5Ac(a2-3)Gal(b1-4)GlcNAc(b1-3)Gal(b1-4)GlcNAc(b1-3)GalNAc
How it was run: as §1

[34] = target: Neu5Ac(a2-3)Gal(b1-4)GlcNAc(b1-3)Gal(b1-4)GlcNAc(b1-3)[Neu5Ac(a2-3)Gal(b1-4)GlcNAc(b1-3)Gal(b1-4)GlcNAc(b1-6)]GalNAc
How it was run: as §1

[35] = target: Neu5Ac(a2-3)Gal(b1-4)GlcNAc(b1-3)Gal(b1-4)GlcNAc(b1-6)[Gal(b1-3)]GalNAc
How it was run: as §1

[36] = target: Neu5Ac(a2-3)Gal(b1-4)GlcNAc(b1-3)Gal(b1-4)[Fuc(a1-3)]GlcNAc
How it was run: as §1

[37] = target: Neu5Ac(a2-3)Gal(b1-4)GlcNAc(b1-3)GalNAc
How it was run: as §1

B1: LlpA (Burkholderia cenocepacia) (protein)
chain: MGSSHHHHHHSSGLVPRGSHKILGSNETLSAGNVVYSDNGQYHLAMQTDGNLVVYGPTGAVWQSQTSGSGGNRAVMQGDGNLVIYRADNTAAWSSKTAHPGAFLAVQDDGNVVIYWPRPAWASNTSDPATQQSAESKYLASGSTMSAGQTVTVAQYMLVFQADGNLVLYKNGGNPIWSTGTQGKGATYAVMQSDGNFVIYAGSTALWSTKTNGANGAQLVLQSDGNLVIYAPTAAWSTKFGLVTAPTSTSTSNNGPGSGICVGVCPPHPLNGNPFSPVGVGTTGLGFPTPGYPGAAF
- glycan array binding signal (z-score) [1]: 0.496
- glycan array binding signal (z-score) [2]: -0.745
- glycan array binding signal (z-score) [3]: -0.74
- glycan array binding signal (z-score) [4]: -1.03
- glycan array binding signal (z-score) [5]: 0.118
- glycan array binding signal (z-score) [6]: 0.36
- glycan array binding signal (z-score) [7]: -0.712
- glycan array binding signal (z-score) [8]: -0.238
- glycan array binding signal (z-score) [9]: 0.06
- glycan array binding signal (z-score) [10]: 0.24
- glycan array binding signal (z-score) [11]: -0.357
- glycan array binding signal (z-score) [12]: -0.66
- glycan array binding signal (z-score) [13]: 0.851
- glycan array binding signal (z-score) [14]: 0.313
- glycan array binding signal (z-score) [15]: -1.08
- glycan array binding signal (z-score) [16]: 1.54
- glycan array binding signal (z-score) [17]: -0.161
- glycan array binding signal (z-score) (Neu5Ac(a2-3)Gal(b1-4)Glc): 0.087
- glycan array binding signal (z-score) [18]: 0.352
- glycan array binding signal (z-score) [19]: 1.61
- glycan array binding signal (z-score) [20]: 0.385
- glycan array binding signal (z-score) [21]: -0.726
- glycan array binding signal (z-score) [22]: 0.547
- glycan array binding signal (z-score) [23]: 0.547
- glycan array binding signal (z-score) [24]: -0.347
- glycan array binding signal (z-score) [25]: -0.194
- glycan array binding signal (z-score) [26]: 0.512
- glycan array binding signal (z-score) [27]: 0.858
- glycan array binding signal (z-score) [28]: 0.055
- glycan array binding signal (z-score) [29]: -0.435
- glycan array binding signal (z-score) [30]: 1.15
- glycan array binding signal (z-score) [31]: -0.68
- glycan array binding signal (z-score) [32]: 0.783
- glycan array binding signal (z-score) [33]: 0.147
- glycan array binding signal (z-score) [34]: 0.599
- glycan array binding signal (z-score) [35]: -0.156
- glycan array binding signal (z-score) [36]: -0.636
- glycan array binding signal (z-score) [37]: -0.268
